# The supplement of paper PMC4604168 (melanoma cell lines)
# Some of the results follow. Single values are uncertain, as repeats are few or missing.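 Cells were imaged in 1,536-well plates, and nuclei stained with an antibody against cleaved PARP were counted against all DNA-stained nuclei to give the apoptosis fraction. Screening doses were chosen to leave most cells alive, and resting and induced cleaved-PARP levels differ strongly between cell lines.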
# System: SkMel2
# Assay: cleaved PARP positive nuclei fraction relative to DMSO control; melanoma cells; higher = more apoptosis
# Details: library dose: low library concentration; 72 h
row,SMILES,cleaved PARP positive nuclei fraction
1,"CC(=O)O[C@@]12CO[C@@H]1C[C@H](O)[C@@]1(C)C(=O)[C@H](O)C3=C(C)[C@@H](OC(=O)[C@H](O)[C@@H](NC(=O)OC(C)(C)C)c4ccccc4)C[C@@](O)([C@@H](OC(=O)c4ccccc4)[C@H]21)C3(C)C [Docetaxel] + Cc1ccc(NC(=O)c2cccc(N(C)C)c2)cc1NC(=O)c1ccc(O)cc1 [ZM336372] (first compound 0.0001 µM, partner dose 2 µM)",510%
2,"C[C@@H](N)c1ccc(C(=O)Nc2ccnc3[nH]ccc23)cc1 + COc1cc(N2CCC(N3CCN(C)CC3)CC2)ccc1Nc1ncc(Cl)c(Nc2ccccc2S(=O)(=O)C(C)C)n1 [NVP-TAE684] (first compound 0.4 µM, partner dose 0.08 µM)",110%
3,"CCN(CC)CCNC(=O)c1c(C)[nH]c(/C=C2\C(=O)Nc3ccc(F)cc32)c1C [sunitinib] + O=c1cc(-c2cccc3c2Sc2ccccc2S3)oc(N2CCOCC2)c1 [KU55933] (first compound 0.4 µM, partner dose 1 µM)",67.3%
4,"C[C@]1(O)C[C@@H](c2nc(-c3ccc4ccc(-c5ccccc5)nc4c3)c3c(N)nccn32)C1 + O=C(Nc1ccccc1)c1cc([N+](=O)[O-])ccc1Cl [GW9662] (first compound 0.4 µM, partner dose 2 µM)",75%
5,"CCCCCCCCc1ccc(CCC(N)(CO)CO)cc1 [fingolimod] + NCC(=O)Nc1ccc(-n2nc(C(F)(F)F)cc2-c2ccc3c(ccc4ccccc43)c2)cc1 [OSU03012] (first compound 2 µM, partner dose 1 µM)",217%
6,"CC1(C)CCC(c2ccc(Cl)cc2)=C(CN2CCN(c3ccc(C(=O)NS(=O)(=O)c4ccc(N[C@H](CCN5CCOCC5)CSc5ccccc5)c(S(=O)(=O)C(F)(F)F)c4)cc3)CC2)C1 + CO[C@@H]1[C@H](N(C)C(=O)c2ccccc2)C[C@H]2O[C@]1(C)n1c3ccccc3c3c4c(c5c6ccccc6n2c5c31)C(=O)NC4 [Midostaurin] (first compound 0.4 µM, partner dose 0.08 µM)",278%
7,"C[C@]1(O)C[C@@H](c2nc(-c3ccc4ccc(-c5ccccc5)nc4c3)c3c(N)nccn32)C1 + Cc1cc([N+](=O)[O-])ccc1NS(=O)(=O)c1cc(Cl)ccc1Cl [FH535] (first compound 0.4 µM, partner dose 1 µM)",25.4%
